Some of the results follow.
Biological target: OsWRKY34 (Oryza sativa, UniProt Q0JBA9 1-250)
Experiment: protein-binding microarray (RPBM); PBS, 2% BSA, 51.3 ng/ul salmon testes DNA, 50 uM zinc acetate, 200 nM TF, 25 C, 1 h; high values mean tight binding
Settings: protein: recombinant; tags: N-terminal polyhistidine and DsRed monomer fusion (pET32a); label: CyDye5-dUTP incorporated in the synthesized complementary strand; 3' TTTTT single-stranded linker to array surface; dsDNA, one strand shown
How it was run: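 Using Ni–NTA, transcription factors fused N-terminally to polyhistidine and DsRed were purified after expression in E. coli BL21-CodonPlus. These were incubated at 200 nM with a blocked, double-stranded custom Agilent array for 1 h at 25 °C in a buffer containing 50 µM zinc acetate, and the array was washed. The binding signal is per-feature fluorescence intensity (arbitrary units) on an Axon 4000B scanner.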

The chains behind the UniProt entries cited, without tags or fusion partners.
UniProt Q0JBA9, entry or part of it: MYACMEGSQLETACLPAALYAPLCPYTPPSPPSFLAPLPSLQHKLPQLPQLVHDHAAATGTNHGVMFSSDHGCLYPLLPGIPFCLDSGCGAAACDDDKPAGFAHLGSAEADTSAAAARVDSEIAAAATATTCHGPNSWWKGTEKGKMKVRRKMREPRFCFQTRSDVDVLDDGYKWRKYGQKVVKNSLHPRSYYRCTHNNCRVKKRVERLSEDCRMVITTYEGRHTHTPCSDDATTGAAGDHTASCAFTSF

Sequence | binding signal
GCCCGCCGCTATCTGCCTCCATCGTCCACTGATTCCTTCTCGGAGTCACCTAGTGCAG | 8380 fluorescence intensity (a.u.)
TCCCTACACCGTCGCCGTCAGCCGTTGGACATCTAGATCACGGAGTCACCTAGTGCAG | 11900 fluorescence intensity (a.u.)
TGCAGATTTGGTTTTTCTTTTTTTTCGCACGTTCTCTTTCCGGAGTCACCTAGTGCAG | 15700 fluorescence intensity (a.u.)
GACCATCACACGCCCATCGCCAACGGCGGCGGCAGCAGCACGGAGTCACCTAGTGCAG | 8240 fluorescence intensity (a.u.)
TTATTTTGAATTTTATTTTCGTGTTCCAAAGTCAAAATTTCGGAGTCACCTAGTGCAG | 12200 fluorescence intensity (a.u.)
CAGGTGTGACTTGGTTTATTATTAAATGTGTTTTTAGCATCGGAGTCACCTAGTGCAG | 9210 fluorescence intensity (a.u.)
CACTATCTTTTCAATTCTGTATTTTTCGGTCGTTTTAGCACGGAGTCACCTAGTGCAG | 9100 fluorescence intensity (a.u.)
CACTTACACTTTCATTTTCGCTTCATGTAAAATAGTCAACCGGAGTCACCTAGTGCAG | 8980 fluorescence intensity (a.u.)
CCAATACTTTCCTTTATTTTACCAGGCACCATGCTTATTTCGGAGTCACCTAGTGCAG | 8430 fluorescence intensity (a.u.)
AATTATCACTTCAGTACCATCACTTTGTTCATTTCCTTACCGGAGTCACCTAGTGCAG | 11100 fluorescence intensity (a.u.)
TCCCTCATTTGACAAATTATGGCAAACGTTTTGCAACTTCCGGAGTCACCTAGTGCAG | 8340 fluorescence intensity (a.u.)
GCTCATCAGACTCCAAACAACTCACACAGCTCGCACTTTCCGGAGTCACCTAGTGCAG | 9970 fluorescence intensity (a.u.)
TGCGTCCGAACTTTCACTTACGTTTTCCATATATATAGTTCGGAGTCACCTAGTGCAG | 8130 fluorescence intensity (a.u.)
CTCGCTTTTCTTCCTTTTCCTGCAATTTCTGTTTCGTTTACGGAGTCACCTAGTGCAG | 10100 fluorescence intensity (a.u.)
TTTCCTGTGATCCAATCAAACGACCATTCCTGTGTTTTTTCGGAGTCACCTAGTGCAG | 12200 fluorescence intensity (a.u.)
AGGAGAGAGTAGTACAGATGGCAACAACAATTGATTACAACGGAGTCACCTAGTGCAG | 9560 fluorescence intensity (a.u.)
TGTTGGCCTGATAAGATTTTTCCATTACTCTCTCAGCTGCCGGAGTCACCTAGTGCAG | 10100 fluorescence intensity (a.u.)
GTGTGTGAGTTGCGTGTGCTGTGACAGCTGTCACGGGTTGCGGAGTCACCTAGTGCAG | 8240 fluorescence intensity (a.u.)
TATTCCCAGCTGGTAACTCTATCCATTGACGGCTGTGTTTCGGAGTCACCTAGTGCAG | 9650 fluorescence intensity (a.u.)
CGATGCGTCAGCCGTGAACTCGCAGGTGGAGGGCGGCGGGCGGAGTCACCTAGTGCAG | 9420 fluorescence intensity (a.u.)
CCCTGTGTGATTTGAGATCAGTGTTTGTTTTCTTTGTATACGGAGTCACCTAGTGCAG | 8490 fluorescence intensity (a.u.)
ATGTTCAACTCATTTCGTATTTTCTTTTGTAAGTACTAACCGGAGTCACCTAGTGCAG | 8800 fluorescence intensity (a.u.)
AACTTGGGCACTACCACCACTCGCCTCACACTCACTCGCTCGGAGTCACCTAGTGCAG | 8600 fluorescence intensity (a.u.)
GCCCACCTGGATCACAATGTGCCGTGCTGTCCTCGTCTCTCGGAGTCACCTAGTGCAG | 12000 fluorescence intensity (a.u.)
CCGTATCGTTTACTATTTGTTATTTTCTACTTATTTGTTACGGAGTCACCTAGTGCAG | 9030 fluorescence intensity (a.u.)
CCTACTCGTTCCACTTCTCCATGGCGCAGGCCGTGCTCACCGGAGTCACCTAGTGCAG | 10500 fluorescence intensity (a.u.)
CATGCAGCTTCCTCATTTTAGCCTTTTTCCGAGTTCCGACCGGAGTCACCTAGTGCAG | 9580 fluorescence intensity (a.u.)

Sequence | binding signal
ACTGTATTTTTGGATTTCCTCTTCCATGCAATTCCATCGTCGGAGTCACCTAGTGCAG | 10300 fluorescence intensity (a.u.)
ATGGAGTATGTTGGGCCGATAGCCCATTTGCATTAATGGTCGGAGTCACCTAGTGCAG | 8260 fluorescence intensity (a.u.)
GTGGTTCCGCTTATTTTCTAACAGCATTTCTTTTTTTTATCGGAGTCACCTAGTGCAG | 11600 fluorescence intensity (a.u.)
CGCGCCCCGCACCGCGCCGCCGCGAGCCGCAGCCGACTGCCGGAGTCACCTAGTGCAG | 8200 fluorescence intensity (a.u.)
CATAGTATCTGCACTTTTTCCTATGATATTATTTGTGGTTCGGAGTCACCTAGTGCAG | 14700 fluorescence intensity (a.u.)
GATAACGAGGCCTTTTTCCTTTCCCGTTAATATCCATCTTCGGAGTCACCTAGTGCAG | 8840 fluorescence intensity (a.u.)
ATCTTCCCGTGGAAAACAGTTTGCATGCGTTGTACATGTTCGGAGTCACCTAGTGCAG | 11300 fluorescence intensity (a.u.)
TTCTTGAAACTATTCCATATGGTTTTTTTTAAAAAAATCCCGGAGTCACCTAGTGCAG | 8150 fluorescence intensity (a.u.)
AGTTAGTCAAGCGTATCCTATTTTACGTGCCCGCGCGAATCGGAGTCACCTAGTGCAG | 9610 fluorescence intensity (a.u.)
GGTTGCAATTTGAAGTTGGTGTAACTTTACTGTTTTTTTCCGGAGTCACCTAGTGCAG | 8950 fluorescence intensity (a.u.)
CTACCAAGTACCAACCGAACCTTTTTCTTTTGGCTAATTTCGGAGTCACCTAGTGCAG | 8750 fluorescence intensity (a.u.)
TCGTCGTTGGGTCGCGGTCGTGGCTAAGCCGTTTCCTCAGCGGAGTCACCTAGTGCAG | 8340 fluorescence intensity (a.u.)
ATCCCATCCGGATTGCCACCCAACCAATCGCCATTTGCTTCGGAGTCACCTAGTGCAG | 8530 fluorescence intensity (a.u.)
GATGCCTTATTGTTATACTGTCATGGTTGGTTCGTTTTAACGGAGTCACCTAGTGCAG | 8220 fluorescence intensity (a.u.)
TTCCCCAAATTTTGGGTCATGGATTAGTTTCACGCTTATACGGAGTCACCTAGTGCAG | 8110 fluorescence intensity (a.u.)
TCGCTCGCCGGCAACGAGCGAGGCAGGGTGGGTGGGTGGTCGGAGTCACCTAGTGCAG | 8670 fluorescence intensity (a.u.)
GCTGTCGATGACTTTTTCAGTTGAAATCATTTAGTATTTGCGGAGTCACCTAGTGCAG | 10600 fluorescence intensity (a.u.)
GTCGCTTTTGCAAGTAAACGTCTTGTTACAATCTGCTTTTCGGAGTCACCTAGTGCAG | 9540 fluorescence intensity (a.u.)
GGTTGGGCGTCTCGTCCCGTCTCGTCTCGTCTCCCCACGACGGAGTCACCTAGTGCAG | 8400 fluorescence intensity (a.u.)
CTGTCTCCGCGCGCTCGAGCCGTCTGTCTGCTATGGAAGCCGGAGTCACCTAGTGCAG | 8100 fluorescence intensity (a.u.)
GAAAATCTGTGGGAGGGGAGGGGAGGGGACGAGGGGACAGCGGAGTCACCTAGTGCAG | 19000 fluorescence intensity (a.u.)
AGGTGTCTTGTGTCTGGTGGATTTTGCTTCGGAATGATGGCGGAGTCACCTAGTGCAG | 8640 fluorescence intensity (a.u.)
CCTCCGCCTTAGCATCATATCACTCGCGCCACCCAATTGCCGGAGTCACCTAGTGCAG | 10200 fluorescence intensity (a.u.)
CTTGGTTTATTTTGATTTGCTGACTATAACACTTGATTCTCGGAGTCACCTAGTGCAG | 9570 fluorescence intensity (a.u.)
CAATGAGATTTAATTTATGCACCATTATTTCTTTTTGTACCGGAGTCACCTAGTGCAG | 9350 fluorescence intensity (a.u.)
TCACCACCTGTCCATCCAGCGCGCGCCCGCCCGCCCGCCTCGGAGTCACCTAGTGCAG | 9740 fluorescence intensity (a.u.)
GCGTTTATATGTACAGACACTCAATGAATCGTTATATTCTCGGAGTCACCTAGTGCAG | 9330 fluorescence intensity (a.u.)

Copied from the list:
Entry for AACTTGGGCACTACCACCACTCGCCTCACACTCACTCGCTCGGAGTCACCTAGTGCAG under binding signal: 8600 fluorescence intensity (a.u.)
Entry for TGTTGGCCTGATAAGATTTTTCCATTACTCTCTCAGCTGCCGGAGTCACCTAGTGCAG under binding signal: 10100 fluorescence intensity (a.u.)

Source: article PMC7819943, “Rice protein-binding microarrays: a tool to detect cis-acting elements near promoter regions in rice”
